Patent publication US12478617B2, “Lipidated peptide inhibitors of interleukin-23 receptor” (JANSSEN BIOTECH, INC., priority 2021, dated 2025)
At least one compound was matched to its structure with a doubt left. Starred links: 1 amine or outer side, 2 acyl side, 3 side chain; linkers in the order of their positions; H or OH if unused. Positions of bridges follow the written chain, without caps; N, C: chain ends. Non-standard residues stand in square brackets, D forms with d. Residues, ends and D or L forms follow the SMILES beside them. Groups on a side chain read outwards from the residue. *: point of attachment. X4 = O=C(O)CCCCCCCCCCCCCCC(=O)NC[C@H](NC(=O)CCCCCCCCCCCCCCC(=O)O)C(=O)*; Trp(7-Me) = Cc1cccc2c(C[C@H](N)C(=O)O)c[nH]c12; C18 diacid = O=C(O)CCCCCCCCCCCCCCCCC(=O)*; γGlu = O=C(O)[C@H](CCC(=O)[*:2])N[*:1]; 2Nal = N[C@@H](Cc1ccc2ccccc2c1)C(=O)O; AEF = NCCOc1ccc(C[C@H](N)C(=O)O)cc1; Palmitoyl = CCCCCCCCCCCCCCCC(=O)*; 3Pal = N[C@@H](Cc1cccnc1)C(=O)O; Pen = CC(C)(S)[C@H](N)C(=O)O; Thp = NC1(C(=O)O)CCOCC1; AEEA = NCCOCCOCC(=O)O; Sar = CNCC(=O)O

What follows are compounds tested against T1, IL-23R (Homo sapiens, UniProt Q5VWK5) (assay: IL23R Reporter Assay). Settings: HEK293 cells containing IL-23R, IL-12Rβ1 and STAT-inducible firefly luciferase reporter; 10 ng/mL IL-23 (EC90); 5 h at 37° C.
T1 construct: HEK293 cells containing IL-23R, IL-12RP31 and a firefly luciferase reporter gene driven by a STAT-inducible promoter (Promega); host or cells: HEK293
T1 sequence (Q5VWK5 24-629): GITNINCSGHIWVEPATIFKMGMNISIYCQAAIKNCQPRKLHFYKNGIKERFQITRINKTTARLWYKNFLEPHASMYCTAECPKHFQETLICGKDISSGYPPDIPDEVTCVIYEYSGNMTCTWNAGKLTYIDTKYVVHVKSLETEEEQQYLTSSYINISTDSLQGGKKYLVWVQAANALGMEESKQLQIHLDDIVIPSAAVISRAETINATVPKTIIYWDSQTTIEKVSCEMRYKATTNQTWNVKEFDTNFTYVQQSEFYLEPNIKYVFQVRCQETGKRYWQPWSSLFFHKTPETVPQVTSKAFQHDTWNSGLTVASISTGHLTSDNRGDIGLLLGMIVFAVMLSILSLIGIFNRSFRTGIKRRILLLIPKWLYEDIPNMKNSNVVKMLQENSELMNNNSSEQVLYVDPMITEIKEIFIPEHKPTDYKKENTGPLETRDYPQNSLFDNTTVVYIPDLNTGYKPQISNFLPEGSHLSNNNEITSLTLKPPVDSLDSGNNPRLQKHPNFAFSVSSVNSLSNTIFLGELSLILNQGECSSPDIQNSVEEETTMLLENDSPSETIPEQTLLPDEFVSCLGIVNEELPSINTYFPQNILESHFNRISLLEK
Type: cell-based
Text: IL-23 binding to IL-23 receptors results in the activation of the Signal Transducer and Activator of Transcription 3 (STAT3) by phosphorylation and downstream signaling events. Accordingly. the ability of the inhibitors described herein to block IL-23 action can be assessed by monitoring the status of STAT3 activation in response to IL-23. This may be accomplished in reporter cell assays or in intact cells such as peripheral blood mononuclear cells (PBMCs).
Compounds were serially diluted in 100% (v/v) DMSO) and plated using an Echo acoustic dispenser (Labcyte) into 1536-well non-treated black assay plates (Corning #9146). […] After 5 h at 37° C., 5% CO2, 95% relative humidity, cells were placed at 20° C. and treated with BioGlo reagent (Promega) according to the Manufacturer's instructions. Luminescence was measured on a Pherastar FSX (BMG LabTech).

Structure (SMILES) | IC50 [nM]
CC(=O)NCCCC[C@@H]1NC(=O)[C@H](Cc2c[nH]c3c(C)cccc23)NC(=O)[C@H]([C@@H](C)O)NC(=O)[C@H](CC(N)=O)NC(=O)[C@@H](NC(=O)[C@@H](CCCCNC(=O)COCCOCCNC(=O)COCCOCCNC(=O)CC[C@H](NC(=O)[C@H](CNC(=O)CCCCCCCCCCCCCCC(=O)O)NC(=O)CCCCCCCCCCCCCCC(=O)O)C(=O)O)NC(C)=O)C(C)(C)SSC(C)(C)[C@@H](C(=O)N[C@@H](Cc2ccc(OCCN)cc2)C(=O)N[C@@H](Cc2ccc3ccccc3c2)C(=O)NC2(C(=O)N[C@@H](CCCCNC(C)=O)C(=O)N[C@@H](CC(N)=O)C(=O)N[C@@H](Cc3cccnc3)C(=O)N(C)CC(N)=O)CCOCC2)NC1=O [Example 117, MeCO-K(PEG2PEG2gEDAP(C16OH)2)-Pen*-N-T-7MeW-K(Ac)-Pen*-AEF-2Nal-THP-K(Ac)-N-3Pya-Sar-CONH2] (Ac-[dK]([AEEA-AEEA-γGlu-X4])[Pen]NT[Trp(7-Me)]K(Ac)[Pen][AEF][2Nal][Thp]K(Ac)N[3Pal][Sar]-NH2; disulfide 2-7) | 0.1
CC(=O)NCCCC[C@@H]1NC(=O)[C@H](Cc2c[nH]c3c(C)cccc23)NC(=O)[C@H]([C@@H](C)O)NC(=O)[C@H](CC(N)=O)NC(=O)[C@@H](NC(=O)[C@@H](CCCCNC(=O)[C@H](CNC(=O)CCCCCCCCCCCCCCC(=O)O)NC(=O)CCCCCCCCCCCCCCC(=O)O)NC(C)=O)C(C)(C)SSC(C)(C)[C@@H](C(=O)N[C@@H](Cc2ccc(OCCN)cc2)C(=O)N[C@@H](Cc2ccc3ccccc3c2)C(=O)NC2(C(=O)N[C@@H](CCCCNC(C)=O)C(=O)N[C@@H](CC(N)=O)C(=O)N[C@@H](Cc3cccnc3)C(=O)N(C)CC(N)=O)CCOCC2)NC1=O [Example 115, MeCO-K(DAP(C16OH)2)-Pen*-N-T-7MeW-K(Ac)-Pen*-AEF-2Nal-THP-K(Ac)-N-3Pya-Sar-CONH2] (Ac-[dK](X4)[Pen]NT[Trp(7-Me)]K(Ac)[Pen][AEF][2Nal][Thp]K(Ac)N[3Pal][Sar]-NH2; disulfide 2-7) | 0.082
CCCCCCCCCCCCCCCC(=O)N[C@@H](CCC(=O)NCCCC[C@@H]1NC(=O)[C@@H](NC(=O)[C@@H](CCCCNC(=O)COCCOCCNC(=O)COCCOCCNC(=O)CC[C@H](NC(=O)CCCCCCCCCCCCCCCCC(=O)O)C(=O)O)NC(C)=O)C(C)(C)SSC(C)(C)[C@@H](C(=O)N[C@@H](Cc2ccc(OCCN)cc2)C(=O)N[C@@H](Cc2ccc3ccccc3c2)C(=O)NC2(C(=O)N[C@@H](CCCCNC(C)=O)C(=O)N[C@@H](CC(N)=O)C(=O)N[C@@H](Cc3cccnc3)C(=O)N(C)CC(N)=O)CCOCC2)NC(=O)[C@H](CCCCNC(C)=O)NC(=O)[C@H](Cc2c[nH]c3c(C)cccc23)NC(=O)[C@H]([C@@H](C)O)NC1=O)C(=O)O [Example 94, MeCO-K(PEG2PEG2gEC18OH)-Pen*-K(gEc16)-T-7MeW-K(Ac)-Pen*-AEF-2Nal-THP-K(Ac)-N-3Pya-Sar-CONH2] (Ac-[dK]([AEEA-AEEA-γGlu-C18 diacid])[Pen]K([γGlu-Palmitoyl])T[Trp(7-Me)]K(Ac)[Pen][AEF][2Nal][Thp]K(Ac)N[3Pal][Sar]-NH2; disulfide 2-7) | 1.44
